These are yes or no findings as the source states them, for the method shown. For some assays here: In cells and extracts the contact can be indirect. Sequences can lack the tags named with a protein. Some entries that bind do so weakly or less than the wild type.
Assays:
[1] = target: zebrafish Caiap-mCherry (CARD- and ANK-containing Inflammasome Adaptor Protein fused to mCherry) (zebrafish) (UniProt Q5TYM7); assay: gel electrophoresis under non-reducing conditions with blot; lysates of transfected HEK293T cells, with or without FLAG-Caspa, resolved under non-reducing conditions (SDS and β-mercaptoethanol omitted from the loading buffer) and reducing conditions
[2] = target: zebrafish Asc-Myc (zebrafish) (UniProt Q9I9N6); assay: co-IP; HEK293T cells co-transfected, lysed 48 h post-transfection in 50 mM Tris-HCl, 150 mM NaCl, 1% NP40; 1 mg lysate with Myc Affinity Gel 2 h at 4°C; blots probed for Myc and mCherry

Amino acid sequences for entries named in this document (tags omitted).
UniProt Q9I9N6: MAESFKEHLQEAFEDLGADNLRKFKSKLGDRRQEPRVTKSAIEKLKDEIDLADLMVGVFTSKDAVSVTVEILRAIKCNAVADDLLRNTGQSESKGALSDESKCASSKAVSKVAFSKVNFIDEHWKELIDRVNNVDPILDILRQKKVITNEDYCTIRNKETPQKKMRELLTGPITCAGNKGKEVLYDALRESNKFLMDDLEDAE

B1: zebrafish Caiap-mCherry (CARD- and ANK-containing Inflammasome Adaptor Protein fused to mCherry) (protein, UniProt Q5TYM7 1-744)
chain: MGSTSFTNPYAIEVIQMKRSELVSGILNPEDLLDLLIANGVLQPDIRVLVSDLTVREEKNSRMLNILISRGERACRIFFYPCLKRAEPDLYQHMRTYVGGVNEGIRDARRQLIGYLLEKDKQGLVKNSKPERIHPKSTANEPNNEPLNKQILKSESNHHDAILEAISSGDLYLLQELTKELDVNSVLSSNDTLLHHAAEYGKEAIVYFLLRQGAKLDLKDKEGRTALHRAAQRGHTAVAVALAKAGADIHATDQTSKTPLHLAAQNGHEGCVKALVHEEKKSLKNQTTVLHMAAIEDNATLAEVLLRNGALVDAQDGQRKTALHHAVRHGNEKTAAVLLKAGAQVDSRIVDAAFQLNRKSLLSLFLQHVHESMSQTEINAALFKAVQRNLDAVVAALIEHGADVNSCNELGYTPVLLAAELGNGEAFKVLVSKKAKLDERLPNQMSSLHLAVQSGSIQIAQILLHKGIDPNISGPKDQTPLHLSASHNQPAMMALLLRVGAQLNPVTQDGFTPLHLASQNGHTEAVAQLLEAKADVHAKDKQGRTALHWAAEQGEVAIIQSLLAAGAYSNASEREKKTPLHLAAAEGHTKAVSALLAGKAKVGAKDMDGCSPLHYAARNGKERAGSVLLASSKSKNVDDKNVWRRTALHLAAEHGHEALVGILLENKAKINALDNNKDTPLHCACKTGHLGTVQRLINWTNGERANLQATNNVKKNALQVAEAGDTEAHENISTLLKKKMFLVK
B1 was tested, and the binding [1] was “binds” and the binding [2] was “no binding”.

— PMC5662874
